PubChem BioAssay AID1259308 | NCATS | 2017
The whole screen tested about 59,000 reagents; shown is an unselected part. Of all reagents, about 1,510 (2.6%) are marked active. 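Calls use total luciferase alone and ignore viability, so some active siRNAs may act by altering cell number.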 Not all columns of the deposit are shown.

Screen: 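Genes whose loss raises luciferase production in HEK293 cells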 (primary screen)
System: human HEK293 embryonic kidney cells stably expressing firefly luciferase (HEK-CMV-Luc2-Hygro)
Reagent: single siRNA against human genes, 0.8 pmol siRNA per well
Duration: 72 h
Read-out: 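Luciferase light (ONE-Glo) measured on one replicate plate set and viability (CellTiter-Glo) on the other, scaled to a negative control siRNA, with robust z-scores and luciferase per cell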
Reading the numbers: total luciferase, z-score: higher = more reporter protein produced
Active means: 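Active when the median/MAD z-score for overall luciferase is greater than 3; a gene was taken forward for validation with new siRNAs if at least two of its three siRNAs passed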
Calls: active = raised luciferase; inactive = no rise

total luciferase, z-score, by gene and reagent
YLPM1: SID160744966 -0.618 inactive; SID160744967 0.0565 inactive; SID160744968 -0.391 inactive
SERINC4: SID160768382 -0.748 inactive; SID160768384 -0.209 inactive; SID160768385 -1.23 inactive
CLDN1: SID160721417 1.6 inactive; SID160721418 0.0595 inactive; SID160721419 -0.0797 inactive
LRRC71: SID160758842 1.34 inactive; SID160758843 -0.31 inactive; SID160758844 -0.588 inactive
OXER1: SID160760155 0.689 inactive; SID160760156 1.02 inactive; SID160760157 -0.695 inactive
ATP5MC1: SID160731392 1.81 inactive; SID160731393 0.947 inactive; SID160768592 -1.21 inactive
SOX12: SID160717219 -0.915 inactive; SID160717220 0.0669 inactive; SID160731780 1.02 inactive
LINC00273: SID160726126 0.108 inactive; SID160734066 -0.503 inactive; SID160734067 0.696 inactive
UGT2B4: SID160718598 -0.0479 inactive; SID160718599 -1.2 inactive; SID160718600 -2.26 inactive
PIGB: SID160722329 -0.562 inactive; SID160722330 0.433 inactive; SID160722332 -0.474 inactive
RHBDL1: SID160721299 0.0359 inactive; SID160721300 -0.985 inactive; SID160724207 -0.748 inactive
SLC25A29: SID160756052 2.62 inactive; SID160756053 -0.852 inactive; SID160756054 -1.07 inactive
STX2: SID160761179 1.61 inactive; SID160761190 0.0202 inactive; SID160761201 0.46 inactive
ZNF454: SID160763693 -1.91 inactive; SID160763694 0.644 inactive; SID160763695 -0.317 inactive
NEB: SID160777853 -0.202 inactive; SID160777854 0.372 inactive; SID160777855 0.374 inactive
RNF41: SID160726711 -0.0166 inactive; SID160726716 -0.339 inactive; SID160726721 -0.54 inactive
PLAAT1: SID160745616 1.17 inactive; SID160745617 1.07 inactive; SID160745618 4.37 active
PRICKLE2: SID160760196 0.793 inactive; SID160760197 0.909 inactive; SID160760198 -0.963 inactive
STXBP5: SID160732484 -0.125 inactive; SID160757382 0.26 inactive; SID160757383 0.547 inactive

Laid out differently: results already given.
SERINC4 [SID160768385]: total luciferase, z-score = -1.23; activity call = inactive
CLDN1 [SID160721417]: total luciferase, z-score = 1.6; activity call = inactive
CLDN1 [SID160721418]: total luciferase, z-score = 0.0595; activity call = inactive
CLDN1 [SID160721419]: total luciferase, z-score = -0.0797; activity call = inactive
LRRC71 [SID160758842]: total luciferase, z-score = 1.34; activity call = inactive
LRRC71 [SID160758843]: total luciferase, z-score = -0.31; activity call = inactive
LRRC71 [SID160758844]: total luciferase, z-score = -0.588; activity call = inactive
OXER1 [SID160760155]: total luciferase, z-score = 0.689; activity call = inactive
